Source: publication PMC5773536
These are yes or no findings as the source states them, for the method shown. For some assays here: Sequences can lack the tags named with a protein.

B1: GST fused with the 10-residue C-terminal peptide of A1aB1b (peptide)
chain: PQESQKRAVA
B2: recombinant A3B4 subunit of glycinin (protein, UniProt P04347 25-516)
chain: ITSSKFNECQLNNLNALEPDHRVESEGGLIETWNSQHPELQCAGVTVSKRTLNRNGSHLPSYLPYPQMIIVVQGKGAIGFAFPGCPETFEKPQQQSSRRGSRSQQQLQDSHQKIRHFNEGDVLVIPLGVPYWTYNTGDEPVVAISPLDTSNFNNQLDQNPRVFYLAGNPDIEHPETMQQQQQQKSHGGRKQGQHRQQEEEGGSVLSGFSKHFLAQSFNTNEDTAEKLRSPDDERKQIVTVEGGLSVISPKWQEQEDEDEDEDEEYGRTPSYPPRRPSHGKHEDDEDEDEEEDQPRPDHPPQRPSRPEQQEPRGRGCQTRNGVEENICTMKLHENIARPSRADFYNPKAGRISTLNSLTLPALRQFGLSAQYVVLYRNGIYSPDWNLNANSVTMTRGKGRVRVVNCQGNAVFDGELRRGQLLVVPQNPAVAEQGGEQGLEYVVFKTHHNAVSSYIKDVFRVIPSEVLSNSYNLGQSQVRQLKYQGNSGPLVNP

Tests used:
[1] = target: recombinant luminal domain of GmVSR (soybean vacuolar sorting receptor) (Glycine max (soybean)); experiment: SPR; GmVSR(LU) immobilised on a CM5 chip; GST fusion protein injected in the absence of Ca2+; both purified
[2] = target: recombinant luminal domain of GmVSR (soybean vacuolar sorting receptor) (Glycine max (soybean)); experiment: SPR; GmVSR(LU) immobilised on a CM5 chip; glycinin subunits injected in high salt buffer (20 mM HEPES, pH 7.0, 0.4 M NaCl, 1 mM EDTA, 0.4% CHAPS, 1 mM CaCl2), 180 s, 30 uL/min; both purified

| Binder | binding [1] | binding [2] |
| --- | --- | --- |
| B1 | no binding (only in the absence of Ca2+) | – |
| B2 | – | no binding |
